Measurements from the supplement of paper PMC6411743.
± gives the standard deviation of the averaged measurements. The list shows a part of the results, in another mix than the full data.

By UniProt entry, the sequences of proteins in these tests, tags left out. Where a name states a change or a piece, a line headed by the entry shows the natural chain unless it says otherwise.
UniProt Q9NXR5: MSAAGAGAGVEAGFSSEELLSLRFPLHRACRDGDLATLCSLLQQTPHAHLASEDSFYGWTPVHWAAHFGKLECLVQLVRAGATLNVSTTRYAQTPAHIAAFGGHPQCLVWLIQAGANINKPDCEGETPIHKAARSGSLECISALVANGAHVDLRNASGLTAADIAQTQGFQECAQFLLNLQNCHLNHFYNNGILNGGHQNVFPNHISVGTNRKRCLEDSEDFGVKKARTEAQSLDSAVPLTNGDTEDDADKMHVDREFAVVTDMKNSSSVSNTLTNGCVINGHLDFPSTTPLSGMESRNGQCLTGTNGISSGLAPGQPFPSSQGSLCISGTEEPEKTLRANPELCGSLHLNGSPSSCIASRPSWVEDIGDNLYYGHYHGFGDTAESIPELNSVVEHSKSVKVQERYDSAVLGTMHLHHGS
UniProt Q9Y5K5, whole entry: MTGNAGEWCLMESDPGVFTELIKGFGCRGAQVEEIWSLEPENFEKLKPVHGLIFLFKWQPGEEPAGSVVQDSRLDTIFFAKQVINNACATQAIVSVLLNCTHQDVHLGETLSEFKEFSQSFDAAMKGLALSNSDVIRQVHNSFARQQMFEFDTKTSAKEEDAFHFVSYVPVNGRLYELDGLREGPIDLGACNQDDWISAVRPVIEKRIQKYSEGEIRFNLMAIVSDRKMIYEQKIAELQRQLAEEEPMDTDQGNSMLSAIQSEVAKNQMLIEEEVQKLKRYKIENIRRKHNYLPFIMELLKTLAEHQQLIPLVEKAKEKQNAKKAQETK
UniProt Q9Y3F4: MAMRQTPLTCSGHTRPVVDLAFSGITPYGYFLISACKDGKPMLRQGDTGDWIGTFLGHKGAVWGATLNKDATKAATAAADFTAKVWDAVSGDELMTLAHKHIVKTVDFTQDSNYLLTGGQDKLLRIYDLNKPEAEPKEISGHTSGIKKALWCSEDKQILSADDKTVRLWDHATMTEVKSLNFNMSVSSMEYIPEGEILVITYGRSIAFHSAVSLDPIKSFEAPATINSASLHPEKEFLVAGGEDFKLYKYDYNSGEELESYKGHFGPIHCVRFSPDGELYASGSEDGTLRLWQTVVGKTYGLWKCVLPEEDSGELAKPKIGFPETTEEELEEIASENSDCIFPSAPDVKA
UniProt Q9Y678: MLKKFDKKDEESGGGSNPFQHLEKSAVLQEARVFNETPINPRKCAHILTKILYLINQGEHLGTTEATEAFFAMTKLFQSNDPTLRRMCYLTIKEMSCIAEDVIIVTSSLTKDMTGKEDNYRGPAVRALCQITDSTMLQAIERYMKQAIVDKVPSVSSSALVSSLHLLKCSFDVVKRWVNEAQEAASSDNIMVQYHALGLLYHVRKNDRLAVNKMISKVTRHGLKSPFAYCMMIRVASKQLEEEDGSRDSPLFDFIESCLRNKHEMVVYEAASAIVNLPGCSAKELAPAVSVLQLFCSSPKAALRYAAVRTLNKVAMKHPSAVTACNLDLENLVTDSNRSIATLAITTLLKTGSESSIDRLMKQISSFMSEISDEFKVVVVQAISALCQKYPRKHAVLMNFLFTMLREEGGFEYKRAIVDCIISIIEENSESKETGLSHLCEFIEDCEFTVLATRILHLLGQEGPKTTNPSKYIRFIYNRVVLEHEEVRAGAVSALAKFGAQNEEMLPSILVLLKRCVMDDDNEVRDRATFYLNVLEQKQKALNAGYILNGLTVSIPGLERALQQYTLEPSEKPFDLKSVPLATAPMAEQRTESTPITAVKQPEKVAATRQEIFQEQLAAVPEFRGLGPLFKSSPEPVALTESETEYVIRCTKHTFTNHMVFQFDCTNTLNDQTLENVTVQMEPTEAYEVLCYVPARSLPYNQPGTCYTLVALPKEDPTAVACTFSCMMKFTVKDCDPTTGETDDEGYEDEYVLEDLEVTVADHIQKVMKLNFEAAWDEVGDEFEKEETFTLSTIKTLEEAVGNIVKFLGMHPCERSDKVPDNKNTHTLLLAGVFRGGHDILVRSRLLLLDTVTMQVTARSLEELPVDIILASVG
UniProt Q9Y5S1: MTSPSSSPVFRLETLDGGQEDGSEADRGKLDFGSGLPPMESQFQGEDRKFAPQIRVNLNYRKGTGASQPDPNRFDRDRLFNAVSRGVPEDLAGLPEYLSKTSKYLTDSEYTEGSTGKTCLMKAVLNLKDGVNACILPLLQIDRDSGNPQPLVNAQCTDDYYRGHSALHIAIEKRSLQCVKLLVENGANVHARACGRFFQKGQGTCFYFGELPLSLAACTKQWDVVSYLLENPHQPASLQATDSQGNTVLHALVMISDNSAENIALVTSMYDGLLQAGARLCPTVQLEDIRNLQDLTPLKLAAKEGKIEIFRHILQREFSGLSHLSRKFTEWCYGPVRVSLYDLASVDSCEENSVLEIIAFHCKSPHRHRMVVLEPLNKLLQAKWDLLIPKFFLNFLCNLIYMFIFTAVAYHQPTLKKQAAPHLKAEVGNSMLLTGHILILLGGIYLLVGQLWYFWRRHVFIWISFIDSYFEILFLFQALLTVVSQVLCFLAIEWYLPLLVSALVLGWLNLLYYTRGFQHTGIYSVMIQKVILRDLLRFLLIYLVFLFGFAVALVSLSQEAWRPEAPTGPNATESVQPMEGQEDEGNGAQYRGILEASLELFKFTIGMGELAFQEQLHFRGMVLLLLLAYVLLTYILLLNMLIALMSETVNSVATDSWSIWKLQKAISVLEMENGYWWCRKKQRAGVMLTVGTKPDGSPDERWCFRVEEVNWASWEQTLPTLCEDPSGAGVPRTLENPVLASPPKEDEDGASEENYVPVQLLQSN
UniProt Q9Y5J1: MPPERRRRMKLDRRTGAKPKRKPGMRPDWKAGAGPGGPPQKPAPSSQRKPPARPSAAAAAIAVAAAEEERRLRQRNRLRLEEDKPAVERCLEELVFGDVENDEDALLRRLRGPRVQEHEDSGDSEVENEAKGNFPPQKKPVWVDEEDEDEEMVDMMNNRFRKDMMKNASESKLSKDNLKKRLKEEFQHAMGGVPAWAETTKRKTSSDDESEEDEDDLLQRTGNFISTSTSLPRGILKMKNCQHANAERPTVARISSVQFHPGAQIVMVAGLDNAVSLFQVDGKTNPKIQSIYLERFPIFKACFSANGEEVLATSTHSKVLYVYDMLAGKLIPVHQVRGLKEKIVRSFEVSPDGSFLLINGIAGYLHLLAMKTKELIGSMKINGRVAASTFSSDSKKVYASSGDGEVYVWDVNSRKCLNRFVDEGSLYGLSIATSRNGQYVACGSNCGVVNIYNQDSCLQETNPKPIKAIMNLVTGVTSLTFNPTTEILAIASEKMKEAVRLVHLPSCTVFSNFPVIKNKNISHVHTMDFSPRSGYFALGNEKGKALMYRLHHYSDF
UniProt Q9Y5X2: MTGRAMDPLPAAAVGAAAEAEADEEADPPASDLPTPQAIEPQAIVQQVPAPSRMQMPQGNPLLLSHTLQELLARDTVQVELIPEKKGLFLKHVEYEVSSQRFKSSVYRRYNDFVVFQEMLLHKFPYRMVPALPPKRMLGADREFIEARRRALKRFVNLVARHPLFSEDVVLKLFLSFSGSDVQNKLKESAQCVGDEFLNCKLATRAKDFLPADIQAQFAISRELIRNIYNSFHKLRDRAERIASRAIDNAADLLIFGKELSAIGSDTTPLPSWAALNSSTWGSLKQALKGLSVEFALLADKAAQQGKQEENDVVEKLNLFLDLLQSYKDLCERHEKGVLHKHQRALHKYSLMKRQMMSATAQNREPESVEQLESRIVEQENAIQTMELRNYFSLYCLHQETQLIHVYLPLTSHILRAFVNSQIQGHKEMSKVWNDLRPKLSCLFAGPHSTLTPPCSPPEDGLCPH
UniProt Q9Y5W8: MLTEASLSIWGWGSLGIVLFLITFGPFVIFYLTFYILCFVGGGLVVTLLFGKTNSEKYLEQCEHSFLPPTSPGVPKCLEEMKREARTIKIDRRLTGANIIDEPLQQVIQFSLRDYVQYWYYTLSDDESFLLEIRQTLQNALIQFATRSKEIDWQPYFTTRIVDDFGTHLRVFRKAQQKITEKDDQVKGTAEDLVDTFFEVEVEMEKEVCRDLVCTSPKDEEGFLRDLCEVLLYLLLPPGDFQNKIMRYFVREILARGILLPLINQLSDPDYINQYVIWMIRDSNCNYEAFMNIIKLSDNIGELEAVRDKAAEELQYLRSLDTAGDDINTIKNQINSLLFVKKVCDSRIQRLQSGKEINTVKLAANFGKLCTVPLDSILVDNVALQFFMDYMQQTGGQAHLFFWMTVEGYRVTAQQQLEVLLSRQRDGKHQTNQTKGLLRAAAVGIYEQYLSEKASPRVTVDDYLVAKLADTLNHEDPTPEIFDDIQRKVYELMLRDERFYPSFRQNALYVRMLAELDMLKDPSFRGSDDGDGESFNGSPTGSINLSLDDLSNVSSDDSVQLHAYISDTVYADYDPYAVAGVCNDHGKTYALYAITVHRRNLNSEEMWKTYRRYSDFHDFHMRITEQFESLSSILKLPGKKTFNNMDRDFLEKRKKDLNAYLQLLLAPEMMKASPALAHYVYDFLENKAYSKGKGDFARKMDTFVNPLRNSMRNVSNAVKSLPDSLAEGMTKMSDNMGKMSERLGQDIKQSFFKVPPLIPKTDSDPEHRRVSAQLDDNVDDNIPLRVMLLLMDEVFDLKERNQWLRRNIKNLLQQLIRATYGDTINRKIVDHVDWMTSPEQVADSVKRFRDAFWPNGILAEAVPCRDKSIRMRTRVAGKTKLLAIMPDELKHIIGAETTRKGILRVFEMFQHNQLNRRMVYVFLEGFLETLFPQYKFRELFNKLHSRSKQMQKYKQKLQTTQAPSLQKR
UniProt Q9Y4X5: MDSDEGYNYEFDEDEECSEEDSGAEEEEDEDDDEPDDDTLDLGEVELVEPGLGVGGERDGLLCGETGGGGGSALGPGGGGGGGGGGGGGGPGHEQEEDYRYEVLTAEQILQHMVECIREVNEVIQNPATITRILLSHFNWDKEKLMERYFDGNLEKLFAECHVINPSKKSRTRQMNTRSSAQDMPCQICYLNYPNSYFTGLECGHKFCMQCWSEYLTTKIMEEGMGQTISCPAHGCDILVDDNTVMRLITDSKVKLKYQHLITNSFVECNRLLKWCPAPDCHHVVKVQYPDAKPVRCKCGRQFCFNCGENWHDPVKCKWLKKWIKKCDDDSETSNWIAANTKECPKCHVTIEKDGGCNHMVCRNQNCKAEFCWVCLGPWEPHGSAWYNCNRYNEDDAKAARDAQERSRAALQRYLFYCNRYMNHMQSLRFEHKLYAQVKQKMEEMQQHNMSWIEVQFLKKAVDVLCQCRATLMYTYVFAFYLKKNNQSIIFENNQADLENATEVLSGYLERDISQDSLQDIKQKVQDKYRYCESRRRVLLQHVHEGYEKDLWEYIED
UniProt Q9Y679: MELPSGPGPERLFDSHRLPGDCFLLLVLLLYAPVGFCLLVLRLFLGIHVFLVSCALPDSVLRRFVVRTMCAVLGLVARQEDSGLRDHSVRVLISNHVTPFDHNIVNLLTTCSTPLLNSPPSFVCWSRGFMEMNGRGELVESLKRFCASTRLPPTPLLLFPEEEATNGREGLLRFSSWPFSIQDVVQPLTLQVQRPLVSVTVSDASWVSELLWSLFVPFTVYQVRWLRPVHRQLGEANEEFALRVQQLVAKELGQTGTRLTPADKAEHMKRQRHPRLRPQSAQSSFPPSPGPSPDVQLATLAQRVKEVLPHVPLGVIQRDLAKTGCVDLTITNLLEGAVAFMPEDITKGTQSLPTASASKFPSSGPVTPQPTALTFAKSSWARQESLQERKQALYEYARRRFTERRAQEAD
UniProt Q9Y4W6: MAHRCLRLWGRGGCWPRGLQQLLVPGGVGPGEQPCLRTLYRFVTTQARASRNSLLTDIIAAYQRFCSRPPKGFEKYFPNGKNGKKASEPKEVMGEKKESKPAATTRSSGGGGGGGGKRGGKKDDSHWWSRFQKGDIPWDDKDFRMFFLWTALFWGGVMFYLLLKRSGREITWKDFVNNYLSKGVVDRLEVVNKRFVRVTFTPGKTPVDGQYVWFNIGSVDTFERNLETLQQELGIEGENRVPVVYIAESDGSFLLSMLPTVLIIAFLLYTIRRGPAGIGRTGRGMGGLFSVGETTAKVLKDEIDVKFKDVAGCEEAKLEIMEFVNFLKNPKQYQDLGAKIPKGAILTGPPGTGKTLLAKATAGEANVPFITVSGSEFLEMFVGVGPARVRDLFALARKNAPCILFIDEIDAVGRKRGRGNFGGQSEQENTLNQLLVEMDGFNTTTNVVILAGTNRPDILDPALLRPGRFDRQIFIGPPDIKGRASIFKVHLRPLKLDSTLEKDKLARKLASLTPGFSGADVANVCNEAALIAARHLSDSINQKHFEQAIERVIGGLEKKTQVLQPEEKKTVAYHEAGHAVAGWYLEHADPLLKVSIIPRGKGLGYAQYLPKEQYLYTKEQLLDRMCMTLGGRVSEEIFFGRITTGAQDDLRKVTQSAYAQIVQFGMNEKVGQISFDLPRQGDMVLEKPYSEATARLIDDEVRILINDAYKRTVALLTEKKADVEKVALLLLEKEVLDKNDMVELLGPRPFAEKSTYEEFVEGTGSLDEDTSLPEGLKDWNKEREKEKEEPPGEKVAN

Compound: Nc1ncnc2c1ncn2[C@@H]1O[C@H](COP(=O)(O)OP(=O)(O)NP(=O)(O)O)[C@@H](O)[C@H]1O [adenylyl imidodiphosphate]
Assay: NP40-soluble protein abundance relative to vehicle (solubility fold change) (ratio); higher = more soluble protein in presence of AMP-PNP
In short: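 Crude Jurkat lysate, prepared by Dounce homogenisation, was exposed to eight concentrations from 0.1 to 10 mM for 10 min at room temperature and then 3 min at 37 °C. Solubilisation used 0.8% NP40 with benzonase for 60 min at 4 °C, followed by ultracentrifugation and TMT labelling of the supernatant for LC-MS/MS. After vsn normalisation of intensities, each value is the fold change against the detergent-processed vehicle within each replicate, across three independent experiments.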

Row | Target | NP40-soluble protein abundance (concentration: 1mM) | NP40-soluble protein abundance (concentration: 2mM) | NP40-soluble protein abundance (concentration: 4mM) | NP40-soluble protein abundance (concentration: 6mM) | NP40-soluble protein abundance (concentration: 8mM) | NP40-soluble protein abundance (concentration: 10mM)
1 | UniProt Q9Y5B6 and related entries | 1.03 ± 0.048 | 1.05 ± 0.017 | 1.07 ± 0.057 | 1.06 ± 0.051 | 1.07 ± 0.049 | 1.14 ± 0.053
2 | S4R3R2 (UniProt Q9NXR5) | 1.04 ± 0.031 | 1.05 ± 0.063 | 1.02 ± 0.027 | 1.01 ± 0.041 | 0.983 ± 0.011 | 0.983 ± 0.022
3 | UniProt Q9Y570 and related entries | 1.01 ± 0.02 | 1.04 ± 0.058 | 1.02 ± 0.031 | 1.01 ± 0.038 | 0.967 ± 0.029 | 1 ± 0.037
4 | UniProt Q9Y5K5 and related entries | 0.964 ± 0.016 | 0.959 ± 0.024 | 0.947 ± 0.026 | 0.949 ± 0.012 | 0.968 ± 0.0098 | 0.958 ± 0.025
5 | MRPS18B (UniProt Q9Y676) | 0.939 ± 0.02 | 0.971 ± 0.066 | 0.892 ± 0.054 | 0.921 ± 0.057 | 0.922 ± 0.087 | 0.889 ± 0.1
6 | UniProt Q9Y450 and related entries | 0.988 ± 0.035 | 1.01 ± 0.025 | 1 ± 0.042 | 1.03 ± 0.035 | 1.03 ± 0.037 | 1.05 ± 0.038
7 | BOLA1 (UniProt Q9Y3E2) | 0.978 ± 0.014 | 0.965 ± 0.028 | 0.9709 ± 0.0074 | 0.98 ± 0.02 | 0.967 ± 0.01 | 0.99 ± 0.016
8 | UniProt Q9Y3F4 and related entries | 1.01 ± 0.013 | 0.976 ± 0.051 | 0.956 ± 0.021 | 0.976 ± 0.03 | 0.978 ± 0.041 | 0.948 ± 0.054
9 | UniProt Q9Y678 | 1.01 ± 0.016 | 0.955 ± 0.067 | 0.997 ± 0.013 | 0.955 ± 0.03 | 0.953 ± 0.026 | 0.936 ± 0.039
10 | TRPV2 (UniProt Q9Y5S1) | 0.996 ± 0.022 | 1.026 ± 0.0087 | 1.026 ± 0.01 | 0.989 ± 0.026 | 0.952 ± 0.023 | 0.969 ± 0.038
11 | UniProt Q9Y530 | 1.03 ± 0.047 | 1.05 ± 0.052 | 1.07 ± 0.071 | 1.06 ± 0.11 | 1.09 ± 0.083 | 1.07 ± 0.093
12 | UniProt Q9Y3V2 and related entries | 0.992 ± 0.033 | 1.014 ± 0.01 | 0.982 ± 0.014 | 0.978 ± 0.05 | 0.992 ± 0.023 | 0.976 ± 0.041
13 | UniProt Q9Y6N5 | 0.965 ± 0.051 | 0.881 ± 0.099 | 0.94 ± 0.019 | 0.923 ± 0.0092 | 0.941 ± 0.01 | 0.919 ± 0.018
14 | UniProt Q9Y3U8 | 1.06 ± 0.014 | 1.03 ± 0.014 | 1.047 ± 0.0097 | 0.992 ± 0.047 | 0.884 ± 0.002 | 1.116 ± 0.008
15 | UTP18 (UniProt Q9Y5J1) | 1.05 ± 0.029 | 1.07 ± 0.048 | 1.1 ± 0.044 | 1.23 ± 0.028 | 1.28 ± 0.062 | 1.36 ± 0.05
16 | UniProt Q9Y4Z0 and related entries | 0.998 ± 0.061 | 1.1 ± 0.11 | 1.06 ± 0.079 | 1.09 ± 0.12 | 1.08 ± 0.084 | 1.14 ± 0.13
17 | ARFGEF2 (UniProt Q9Y6D5) | 1.01 ± 0.028 | 0.987 ± 0.039 | 0.995 ± 0.015 | 0.957 ± 0.044 | 0.93 ± 0.036 | 0.923 ± 0.026
18 | SNX8 (UniProt Q9Y5X2) | 0.975 ± 0.026 | 0.944 ± 0.054 | 0.904 ± 0.017 | 0.954 ± 0.031 | 0.95 ± 0.03 | 0.938 ± 0.048
19 | TSC22D4 (UniProt Q9Y3Q8) | 0.996 ± 0.038 | 1.01 ± 0.05 | 0.995 ± 0.031 | 0.986 ± 0.039 | 1 ± 0.014 | 0.984 ± 0.043
20 | UniProt Q9Y520 and related entries | 1.1 ± 0.013 | 1.2 ± 0.092 | 1.2 ± 0.05 | 1.25 ± 0.12 | 1.29 ± 0.14 | 1.41 ± 0.17
21 | UniProt Q9Y5L0 and related entries | 0.968 ± 0.031 | 0.9469 ± 0.0033 | 0.986 ± 0.018 | 1.01 ± 0.081 | 1.02 ± 0.092 | 1.01 ± 0.049
22 | UniProt Q9Y5W8 and related entries | 0.981 ± 0.016 | 0.9806 ± 0.0092 | 0.987 ± 0.013 | 0.989 ± 0.035 | 0.9895 ± 0.0085 | 0.991 ± 0.018
23 | SRPRB (UniProt Q9Y5M8) | 1.05 ± 0.021 | 1.06 ± 0.011 | 1.04 ± 0.021 | 1.08 ± 0.014 | 1.04 ± 0.014 | 1.08 ± 0.033
24 | UniProt Q9Y3R5 and related entries | 0.993 ± 0.044 | 0.951 ± 0.041 | 0.977 ± 0.011 | 0.96 ± 0.032 | 0.937 ± 0.035 | 0.971 ± 0.029
25 | CLIC4 (UniProt Q9Y696) | 1.03 ± 0.013 | 1.05 ± 0.087 | 1.07 ± 0.057 | 1.1 ± 0.069 | 1.09 ± 0.071 | 1.11 ± 0.1
26 | ARIH1 (UniProt Q9Y4X5) | 0.984 ± 0.031 | 0.954 ± 0.041 | 0.976 ± 0.044 | 0.938 ± 0.023 | 0.981 ± 0.02 | 0.933 ± 0.048
27 | UniProt Q9Y679 and related entries | 0.983 ± 0.034 | 0.923 ± 0.081 | 1 ± 0.015 | 0.991 ± 0.052 | 1.03 ± 0.035 | 0.983 ± 0.032
28 | AFG3L2 (UniProt Q9Y4W6) | 1.03 ± 0.036 | 1 ± 0.11 | 1.02 ± 0.053 | 1.01 ± 0.059 | 1.01 ± 0.058 | 1.01 ± 0.077
29 | UniProt Q9Y3I0 | 0.995 ± 0.022 | 0.998 ± 0.047 | 1.01 ± 0.034 | 1.03 ± 0.03 | 1.03 ± 0.029 | 1.05 ± 0.046

Some of the entries so far, in CSV form.
Row,Target,NP40-soluble protein abundance (concentration: 1mM),NP40-soluble protein abundance (concentration: 2mM),NP40-soluble protein abundance (concentration: 4mM),NP40-soluble protein abundance (concentration: 6mM),NP40-soluble protein abundance (concentration: 8mM),NP40-soluble protein abundance (concentration: 10mM)
6,UniProt Q9Y450 and related entries,0.988 ± 0.035,1.01 ± 0.025,1 ± 0.042,1.03 ± 0.035,1.03 ± 0.037,1.05 ± 0.038
25,CLIC4 (UniProt Q9Y696),1.03 ± 0.013,1.05 ± 0.087,1.07 ± 0.057,1.1 ± 0.069,1.09 ± 0.071,1.11 ± 0.1
